Laboratory results reported in patent US20220317138A1, “METHODS FOR DETERMINING THE CONCENTRATION OF A CARBAPENEM ANTIBIOTIC IN A BIOLOGICAL SAMPLE” (priority 2019, published 2022).
For at least one compound, name, drawing or mass did not settle the structure.

Protein sequences, listed by entry. Tags and fused reporters are not part of them. Residues count along the entry.
UniProt Q6XEC0, 23-265 limits assumed: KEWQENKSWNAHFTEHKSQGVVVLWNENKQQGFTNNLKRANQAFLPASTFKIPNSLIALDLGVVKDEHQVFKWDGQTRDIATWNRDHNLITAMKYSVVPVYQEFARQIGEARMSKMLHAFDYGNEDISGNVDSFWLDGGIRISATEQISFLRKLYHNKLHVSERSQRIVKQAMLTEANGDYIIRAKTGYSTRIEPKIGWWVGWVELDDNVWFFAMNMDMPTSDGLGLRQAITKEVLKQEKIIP
UniProt C7C422, 29-270 limits assumed: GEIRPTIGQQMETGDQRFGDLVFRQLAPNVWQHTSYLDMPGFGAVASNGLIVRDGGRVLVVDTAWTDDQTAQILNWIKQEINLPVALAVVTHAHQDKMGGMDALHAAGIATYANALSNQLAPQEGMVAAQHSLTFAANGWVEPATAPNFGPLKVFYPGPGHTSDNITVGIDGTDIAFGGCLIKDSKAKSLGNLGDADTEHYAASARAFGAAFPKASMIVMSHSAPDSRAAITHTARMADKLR
UniProt Q9EXV5, 29-291 limits assumed: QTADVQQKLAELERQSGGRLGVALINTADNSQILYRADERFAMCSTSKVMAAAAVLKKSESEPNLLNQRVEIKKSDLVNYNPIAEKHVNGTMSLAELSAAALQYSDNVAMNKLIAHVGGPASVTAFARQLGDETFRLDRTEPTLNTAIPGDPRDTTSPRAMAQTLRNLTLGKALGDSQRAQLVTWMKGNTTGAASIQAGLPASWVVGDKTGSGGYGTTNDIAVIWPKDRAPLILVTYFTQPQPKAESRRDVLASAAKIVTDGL

Key:
Type in all cases: biochemical
[1] = target: Oxa48 beta-lactamase (class D) (Klebsiella pneumoniae, UniProt Q6XEC0); conditions: nitrocefin reporter
[2] = target: Ndm1 beta-lactamase (class B) (Klebsiella pneumoniae, UniProt C7C422); conditions: nitrocefin reporter
[3] = system: Per2 beta-lactamase (class A); test: Screening of beta-lactamases by competition, nitrocefin as reporter substrate
[4] = target: beta-lactamase class D OXA-48 (Klebsiella pneumoniae, UniProt Q6XEC0); conditions: second drug alone in ultrafiltrated serum at 10 times recommended blood concentration, result expressed as meropenem concentration, theoretically zero
[5] = target: Vim1 beta-lactamase (class B) (Pseudomonas aeruginosa, UniProt Q9XAY4); test: Screening of beta-lactamases by competition, nitrocefin as reporter substrate
[6] = target: CTXM15 beta-lactamase (class A) (Escherichia coli, UniProt Q9EXV5); conditions: nitrocefin reporter
[7] = system: Imp4 beta-lactamase (class B); test: Screening of beta-lactamases by competition, nitrocefin as reporter substrate

SMILES | hydrolysis rate symbol, (Vmax/V0)-1 [1] | hydrolysis rate symbol, (Vmax/V0)-1 [2] | hydrolysis rate symbol, (Vmax/V0)-1 [3] | Average [meropenem] ([4]; average of three replicates) [mg/L] | [meropenem] (mg/L) Replicates 1 ([4]; replicate 1) [mg/L] | [meropenem] (mg/L) Replicates 2 ([4]; replicate 2) [mg/L] | [meropenem] (mg/L) Replicates 3 ([4]; replicate 3) [mg/L] | hydrolysis rate symbol, (Vmax/V0)-1 [5] | hydrolysis rate symbol, (Vmax/V0)-1 [6] | hydrolysis rate symbol, (Vmax/V0)-1 [7]
CO/N=C(\C(=O)N[C@@H]1C(=O)N2C(C(=O)O)=C(COC(C)=O)CS[C@H]12)c1csc(N)n1 [Cefotaxim ® Sandoz] | − | − | − |  |  |  |  |  |  | 
COCCOC(=O)C1=C(C)NC(C)=C(C(=O)OC(C)C)C1c1cccc([N+](=O)[O-])c1 (stereo not drawn) [Nimotop] |  |  |  | 0.02 | 0.06 | -0.01 | 0.01 |  |  | 
Cc1onc(-c2ccccc2)c1C(=O)N[C@@H]1C(=O)N2[C@@H]1SC(C)(C)[C@@H]2C(=O)O [Penstapho ®] | − | − |  |  |  |  |  | − | − | 
CC1(C)S[C@@H]2[C@H](NC(=O)[C@H](N)c3ccccc3)C(=O)N2[C@H]1C(=O)O [Pentrexyl ®] | − | − |  |  |  |  |  |  | − | −
